Experimental data published in paper PMC9482638.
No constants are given. Whether binding was seen depends on the method and setting. In cells and extracts the contact can be indirect. Here binding means that the protein was enriched with, or labelled near, the bait; the list need not be complete.

Protein sequences, listed by entry. Tags and fused reporters are not part of them. Lines headed by an entry give the natural chain unless they say otherwise; changes in a name come on top. Chains listed by the source or under a name are the forms on record and can include a tag or linker.
BioID2-NRAS^G12V (P01111, form named): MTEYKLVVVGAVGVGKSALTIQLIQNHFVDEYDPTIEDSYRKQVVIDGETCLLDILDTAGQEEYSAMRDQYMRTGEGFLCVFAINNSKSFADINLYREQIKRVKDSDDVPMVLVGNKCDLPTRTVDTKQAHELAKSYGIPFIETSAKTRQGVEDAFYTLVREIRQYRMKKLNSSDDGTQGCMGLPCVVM
UniProt P84077: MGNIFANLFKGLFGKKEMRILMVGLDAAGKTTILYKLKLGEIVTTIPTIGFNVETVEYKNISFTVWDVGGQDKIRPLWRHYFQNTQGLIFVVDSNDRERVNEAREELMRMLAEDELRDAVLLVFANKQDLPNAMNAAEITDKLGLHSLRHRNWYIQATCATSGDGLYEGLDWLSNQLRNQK

Assays:
BioID2-NRAS^G12V = BioID2-NRAS^G12V (UniProt P01111); assay: proximity labelling; BioID2-KRAS^G12V in RPMI 8226 and XG2, BioID2-NRAS^G12V in SKMM1 and L363; 50 uM biotin 16 h; modified RIPA lysis; streptavidin agarose pulldown; SILAC-MS; enrichment relative to BioID2 alone (empty vector)
BioID2-KRAS^G12V = BioID2-KRAS^G12V (UniProt P01116); assay: as above

Substance | binding (BioID2-NRAS^G12V) | binding (BioID2-KRAS^G12V)
ARF1 (endogenous) (from UniProt P84077 1-181) | binds | binds
LAMTOR3 (endogenous) (from UniProt Q9UHA4 1-124) | binds | binds
RRAGC (endogenous) (from UniProt Q9HB90 1-399) | binds | binds
SLC3A2 (endogenous) (from UniProt P08195 1-529) | binds | 
